Patent publication EP0945461A1, “Lipopeptides inducing T-cyxtotoxic lymphocytes and their use as vaccines” (priority 1990, dated 1992)
Part of at least one peptide drawing is inferred or uncertain, most often the ends. Where a SMILES comes first, the peptide text is derived from it.

Assays:
[1] = system: cellules cibles syngéniques en présence de 3µM de peptide ENV 312-327; type: in vivo, souris; settings: text summary of Table II
[2] = system: cellules cibles syngéniques infectées par un virus influenza A; settings: immunised mice; prior art DERES et al., Nature 342, 1989; cited from earlier work

Row | Compound | activité (cytolytique) [1] | réponse CTL contre des cellules cibles infectées par le virus influenza [2]
1 | CCCCCCCCCCCCCCC(NC(=O)[C@H](CCCCN)NC(=O)CNC(=O)[C@@H](NC(=O)[C@@H](NC(=O)[C@@H](NC(=O)[C@H](Cc1ccccc1)NC(=O)[C@H](C)NC(=O)[C@H](CCCNC(=N)N)NC(=O)CNC(=O)[C@@H]1CCCN1C(=O)CNC(=O)[C@H](CCCNC(=N)N)NC(=O)[C@H](CCC(N)=O)NC(=O)[C@@H](NC(=O)[C@H](CCCNC(=N)N)NC(=O)[C@@H](N)[C@@H](C)CC)[C@@H](C)CC)C(C)C)[C@@H](C)O)[C@@H](C)CC)C(N)=O (some centres unmarked) [CB1] | activité importante | 
2 | CC(C)C[C@H](NC(=O)[C@H](C)NC(=O)[C@H](CCCNC(=N)N)NC(=O)[C@@H](NC(=O)[C@H](CCCNC(=N)N)NC(=O)[C@H](CCC(N)=O)NC(=O)[C@H](Cc1ccc(O)cc1)NC(=O)[C@@H](N)[C@@H](C)O)[C@@H](C)O)C(=O)N[C@H](C(=O)N[C@H](C(=O)NCC(=O)O)[C@@H](C)O)C(C)C [NP.147-158R^-] (H-TYQRTRALVTG-OH) |  | ne génèrent pas de lymphocytes T cytotoxiques
